Data published in CN112778416A.
No constants are given. Whether binding was seen depends on the method and setting. Some results given as binding are weak or reduced against the parent protein; the word gives no strength.

Amino acid sequences for entries named in this document (tags omitted). Residues count along the entry.
UniProt P05231, residues 30-212: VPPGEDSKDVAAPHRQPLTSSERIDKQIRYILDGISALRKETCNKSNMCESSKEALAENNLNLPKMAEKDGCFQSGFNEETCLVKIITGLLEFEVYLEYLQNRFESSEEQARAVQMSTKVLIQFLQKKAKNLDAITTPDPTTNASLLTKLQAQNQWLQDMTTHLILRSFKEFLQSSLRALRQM

How the values were obtained:
白介素-6 (IL-6) [1] = target: 白介素-6 (IL-6) (UniProt P05231); assay: SPR, IL-6 amine-coupled to CM5 chip, bivalent polypeptide injected
白介素-6 (IL-6) [2] = target: 白介素-6 (IL-6) (UniProt P05231); assay: SPR, IL-6 amine-coupled to CM5 chip, nanobody injected

B1: 二价多肽bvCNb20-1 (VHH)
chain: QVQLQESGGGSVQAGGSLRLSCAASSGILEIFNAMAWFRQAPGKEREWVARIMGSPYGSTEYYADSVKGRFTFSQDNAKNTVYLQMDSLEPEDTATYYCHSAGYDPRGDDYWGQGTQVTVSSGGGGSGGGGSGGGGSQVQLQESGGGSVQAGGSLRLSCAASSGILEIFNAMAWFRQAPGKEREWVARIMGSPYGSTEYYADSVKGRFTFSQDNAKNTVYLQMDSLEPEDTATYYCHSAGYDPRGDDYWGQGTQVTVSS
For B1, the binding (白介素-6 (IL-6) [1]) was “binds”.

B2: 二价多肽 SEQ ID NO 18 (VHH)
chain: QVQLVESAGGLVQPGGSLRLSCAASGRFTGGSPMGWYRQAPGKRRELVADIMGRGGSNTYADSVKGRFTISRDNAKNTVYLQMNSLKPEDTAVYYCAEAERVSGLLLEVVAEPRGDDYWGQGTQVTVSSGGGGSGGGGSGGGGSQVQLVESAGGLVQPGGSLRLSCAASGRFTGGSPMGWYRQAPGKRRELVADIMGRGGSNTYADSVKGRFTISRDNAKNTVYLQMNSLKPEDTAVYYCAEAERVSGLLLEVVAEPRGDDYWGQGTQVTVSS
For B2, the binding (白介素-6 (IL-6) [1]) was “binds”.

B3: 人源化纳米抗体hCNb20-1 (VHH)
VHH: EVQLVESGGGSVQAGGSLRLSCAASSGILEIFNAMSWFRQAPGKEREWVSAIMGSPYGSTEYYADSVKGRFTFSQDNAKNTVYLQMDSLRPEDTATYYCHSAGYDPRGDDYWGQGTLVTVSS
In the case of B3, the binding (白介素-6 (IL-6) [2]) is reported as “binds”.
